No constants are given. Whether binding was seen depends on the method and setting. In cells and extracts the contact can be indirect. Some binding calls cover weakened binding; strength is not graded here.

Chains of the proteins cited; added tags and fusions are not shown.
UniProt Q99081: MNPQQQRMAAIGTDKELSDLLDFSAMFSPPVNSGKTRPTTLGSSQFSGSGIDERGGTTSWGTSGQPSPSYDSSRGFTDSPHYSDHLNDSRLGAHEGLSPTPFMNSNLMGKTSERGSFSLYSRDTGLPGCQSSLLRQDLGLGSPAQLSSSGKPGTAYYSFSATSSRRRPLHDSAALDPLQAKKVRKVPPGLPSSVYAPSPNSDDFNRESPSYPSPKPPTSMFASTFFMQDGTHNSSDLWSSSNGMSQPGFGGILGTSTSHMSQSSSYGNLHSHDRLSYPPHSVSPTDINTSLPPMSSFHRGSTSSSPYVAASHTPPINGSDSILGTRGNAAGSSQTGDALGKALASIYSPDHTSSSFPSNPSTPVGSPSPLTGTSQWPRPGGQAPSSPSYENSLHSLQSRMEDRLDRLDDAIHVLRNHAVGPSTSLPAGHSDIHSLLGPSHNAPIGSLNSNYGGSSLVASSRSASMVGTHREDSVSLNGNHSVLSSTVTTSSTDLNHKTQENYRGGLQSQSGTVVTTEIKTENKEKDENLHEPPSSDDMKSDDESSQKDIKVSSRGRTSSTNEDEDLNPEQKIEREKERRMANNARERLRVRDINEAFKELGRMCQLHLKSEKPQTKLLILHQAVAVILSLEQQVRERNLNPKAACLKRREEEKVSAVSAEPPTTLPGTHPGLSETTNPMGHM
UniProt Q16665: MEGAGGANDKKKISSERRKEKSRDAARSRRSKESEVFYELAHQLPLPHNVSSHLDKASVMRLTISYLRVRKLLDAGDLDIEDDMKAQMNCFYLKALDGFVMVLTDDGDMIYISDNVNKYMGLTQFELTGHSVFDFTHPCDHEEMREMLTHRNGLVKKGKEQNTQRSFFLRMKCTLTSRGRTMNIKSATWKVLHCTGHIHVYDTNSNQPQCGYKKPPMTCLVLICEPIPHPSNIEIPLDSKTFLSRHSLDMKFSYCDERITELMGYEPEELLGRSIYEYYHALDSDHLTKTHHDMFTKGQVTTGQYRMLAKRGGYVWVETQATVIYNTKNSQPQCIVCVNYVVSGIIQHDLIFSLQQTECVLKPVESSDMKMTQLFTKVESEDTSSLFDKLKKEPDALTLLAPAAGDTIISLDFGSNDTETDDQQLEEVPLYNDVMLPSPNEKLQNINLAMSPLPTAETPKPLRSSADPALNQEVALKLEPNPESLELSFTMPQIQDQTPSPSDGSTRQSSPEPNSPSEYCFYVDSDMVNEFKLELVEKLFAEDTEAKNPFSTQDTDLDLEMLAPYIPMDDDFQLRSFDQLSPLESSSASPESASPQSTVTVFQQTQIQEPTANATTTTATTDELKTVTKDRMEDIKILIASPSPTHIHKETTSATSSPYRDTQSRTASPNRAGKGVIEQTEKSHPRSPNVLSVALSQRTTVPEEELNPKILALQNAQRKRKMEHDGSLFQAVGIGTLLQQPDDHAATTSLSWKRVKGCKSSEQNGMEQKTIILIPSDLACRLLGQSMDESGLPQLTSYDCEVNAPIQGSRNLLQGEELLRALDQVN

The target in the assay is Transcription factor 12 (TCF12) (human (endogenous in ECDHCC-1)) (UniProt Q99081). Nature of the assay: co-IP; ECDHCC-1 cell lysate; antibody with protein A/G magnetic beads, rotated at 4 °C overnight; IgG group as control; washed three times with IP lysis buffer; Western blot detection.

In the case of “hypoxia-inducible factor 1-alpha (HIF-1α) (from UniProt Q16665 1-826)”, the binding entry is reported as “binds”.

Values taken from publication PMC12447747.
